According to the supplement of paper PMC12542422:
Where a name gives a salt, the structure may show the parent alone. ± gives the standard deviation of the averaged measurements. Some of the results follow. These are raw signals, not scaled to a control.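 HeLa cells imaged for ribosome-assembly readouts (ENP1 staining with or without export block, or inducible tagged ribosomal protein reporters); machine learning classified each cell's signal location against solvent (DMSO) controls. Hits exceeded the DMSO false-positive mean by five standard deviations, then were visually confirmed; three biological replicates.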

Columns and labels:
[1] = tested on: HeLa K (ENP1 immunofluorescence, +LMB); test: fraction of cells with nucleolar or nucleolar/nucleoplasmic ENP1 signal (MainHitrate); higher = more cells with nucleolar/nuclear readout signal (for ENP1 -LMB: less RNAPI inhibition; for +LMB ENP1 and RP reporters: stronger nuclear/nucleolar retention, i.e. ribosome biogenesis defect); settings: concentration: 1 µM; treatment time: 6 h; ENP1 +LMB; leptomycin B: 20 nM, last 1.5 h
[2] = tested on: HeLa K (ENP1 immunofluorescence, no LMB); test: as above; settings: concentration: 1 µM; treatment time: 6 h; ENP1 -LMB; leptomycin B: none
HeLa RPS2-YFP reporter = test: fraction of reporter-positive cells with nuclear (nucleolar or nucleolar/nucleoplasmic) RPS2-YFP (MainHitrate); higher = more cells with nucleolar/nuclear readout signal (for ENP1 -LMB: less RNAPI inhibition; for +LMB ENP1 and RP reporters: stronger nuclear/nucleolar retention, i.e. ribosome biogenesis defect); settings: concentration: 1 µM; treatment time: 6 h
HeLa RPL29-GFP reporter = test: fraction of reporter-positive cells with nuclear (nucleolar or nucleolar/nucleoplasmic) RPL29-GFP (MainHitrate); higher = more cells with nucleolar/nuclear readout signal (for ENP1 -LMB: less RNAPI inhibition; for +LMB ENP1 and RP reporters: stronger nuclear/nucleolar retention, i.e. ribosome biogenesis defect); settings: concentration: 1 µM; treatment time: 6 h

Row | SMILES | fraction [1] | fraction [2] | fraction of reporter-positive cells with nuclear (HeLa RPS2-YFP reporter) | fraction of reporter-positive cells with nuclear (HeLa RPL29-GFP reporter)
1 | Cc1c(Cl)cccc1Nc1ccccc1C(=O)O [Tolfenamic acid] | 0.0403 ± 0.044 | 0.9966 ± 0.0058 | 0.0837 ± 0.056 | 0.236 ± 0.067
2 | COc1ccc(C2CNC(=O)C2)cc1OC1CCCC1 (stereo not drawn) [Rolipram] | 0.0669 ± 0.064 | 0.9981 ± 0.0033 | 0.113 ± 0.041 | 0.201 ± 0.058
3 | CCCc1nc(C)c2c(=O)nc(-c3cc(S(=O)(=O)N4CCN(CC)CC4)ccc3OCC)[nH]n12 [Vardenafil (Vivanza)] | 0.0772 ± 0.1 | 0.9959 ± 0.0071 | 0.0553 ± 0.043 | 0.21 ± 0.071
4 | C[C@H]1[C@H](NC(=O)/C(=N\OC(C)(C)C(=O)O)c2csc(N)n2)C(=O)N1S(=O)(=O)O [Aztreonam (Azactam, Cayston)] | 0.0864 ± 0.046 | 0.9979 ± 0.0037 | 0.102 ± 0.09 | 0.217 ± 0.054
5 | CCOc1nc2cccc(C(=O)O)c2n1Cc1ccc(-c2ccccc2-c2nnn[nH]2)cc1 [Candesartan (Atacand)] | 0.095 ± 0.096 | 0.9977 ± 0.004 | 0.108 ± 0.088 | 0.214 ± 0.071
6 | Nc1nc2[nH]cc(CCc3ccc(C(=O)N[C@@H](CCC(=O)O)C(=O)O)cc3)c2c(=O)[nH]1 [Pemetrexed] | 0.131 ± 0.06 | 0.9987 ± 0.0022 | 0.124 ± 0.059 | 0.184 ± 0.081
7 | CC1=C(C(=O)OC(C)C)C(c2cccc([N+](=O)[O-])c2)C(C(=O)OC2CN(C(c3ccccc3)c3ccccc3)C2)=C(N)N1 (stereo not drawn) [Azelnidipine] | 0.11 ± 0.16 | 0.986 ± 0.025 | 0.121 ± 0.095 | 0.221 ± 0.065
8 | CC(C)(C(=O)O)c1ccc(C(O)CCCN2CCC(C(O)(c3ccccc3)c3ccccc3)CC2)cc1 (stereo not drawn) [Fexofenadine HCl] | 0.0775 ± 0.095 | 0.984 ± 0.027 | 0.118 ± 0.11 | 0.221 ± 0.055
9 | CC(=O)OCC(=O)[C@@]1(O)CC[C@H]2[C@@H]3CCC4=CC(=O)CC[C@]4(C)[C@H]3C(=O)C[C@@]21C [Cortisone acetate (Cortone)] | 0.137 ± 0.18 | 0.99 ± 0.017 | 0.158 ± 0.091 | 0.254 ± 0.079
10 | C=C1[C@H](CO)[C@@H](O)C[C@@H]1n1cnc2c(=O)[nH]c(N)nc21 [Entecavir hydrate] | 0.0821 ± 0.11 | 0.998 ± 0.0036 | 0.105 ± 0.068 | 0.203 ± 0.067
11 | CCCCN(CCCC)CCCOC(=O)c1ccc(N)cc1 [Butacaine] | 0.0484 ± 0.051 | 0.994 ± 0.011 | 0.167 ± 0.18 | 0.308 ± 0.26
12 | NC(=O)Cc1cccc(C(=O)c2ccccc2)c1N [Nepafenac] | 0.0884 ± 0.089 | 0.9983 ± 0.003 | 0.114 ± 0.055 | 0.195 ± 0.076
13 | CCCCOc1cc(C(=O)OCCN(CC)CC)ccc1N [Oxybuprocaine HCl] | 0.0931 ± 0.14 | 0.993 ± 0.011 | 0.133 ± 0.11 | 0.204 ± 0.066
14 | CCc1cccc2c3c([nH]c12)C(CC)(CC(=O)O)OCC3 (stereo not drawn) [Etodolac (Lodine)] | 0.072 ± 0.052 | 0.997 ± 0.0051 | 0.0781 ± 0.053 | 0.234 ± 0.067
15 | CC(C)(C)C(=O)OCOP(=O)(COCCn1cnc2c(N)ncnc21)OCOC(=O)C(C)(C)C [Adefovir Dipivoxil (Preveon, Hepsera)] | 0.114 ± 0.14 | 0.9979 ± 0.0036 | 0.0909 ± 0.028 | 0.149 ± 0.048
16 | C[C@H](Cc1cc2c(c(C(N)=O)c1)N(CCCO)CC2)NCCOc1ccccc1OCC(F)(F)F [Silodosin (Rapaflo)] | 0.0891 ± 0.056 | 0.9981 ± 0.0032 | 0.0899 ± 0.059 | 0.193 ± 0.052
17 | CC[C@]1(O)C[C@H]2CN(CCc3c([nH]c4ccccc34)[C@@](C(=O)OC)(c3cc4c(cc3OC)N(C=O)[C@H]3[C@@](O)(C(=O)OC)[C@H](OC(C)=O)[C@]5(CC)C=CCN6CC[C@]43[C@@H]65)C2)C1 [Vincristine] | 0.306 ± 0.19 | 0.9975 ± 0.0044 | 0.265 ± 0.2 | 0.33 ± 0.15
18 | CC[C@@H](CO)NCCN[C@@H](CC)CO [Ethambutol HCl] | 0.13 ± 0.19 | 0.993 ± 0.012 | 0.121 ± 0.1 | 0.21 ± 0.068
19 | Nc1nc(=O)c2c([nH]1)NCC(CNc1ccc(C(=O)N[C@@H](CCC(=O)O)C(=O)O)cc1)N2C=O (stereo partly drawn) [Leucovorin Calcium] | 0.0946 ± 0.1 | 0.9979 ± 0.0036 | 0.109 ± 0.074 | 0.207 ± 0.079
20 | CN/C(=N\CCSCc1nc[nH]c1C)NC#N [Cimetidine (Tagamet)] | 0.096 ± 0.13 | 0.992 ± 0.014 | 0.113 ± 0.084 | 0.226 ± 0.078
21 | C=C1c2cccc(O)c2C(=O)C2=C(O)[C@]3(O)C(=O)C(C(N)=O)=C(O)[C@@H](N(C)C)[C@@H]3[C@@H](O)[C@H]12 [Methacycline hydrochloride (Physiomycine)] | 0.113 ± 0.16 | 0.9948 ± 0.0091 | 0.117 ± 0.072 | 0.276 ± 0.1
22 | CN1CCC(=C2c3ccccc3CCc3cccnc32)CC1 [Azatadine dimaleate] | 0.053 ± 0.065 | 0.984 ± 0.027 | 0.143 ± 0.094 | 0.197 ± 0.03
23 | CC(C)[N+]1(C)[C@@H]2CC[C@H]1C[C@@H](OC(=O)C(CO)c1ccccc1)C2 (stereo partly drawn) [Ipratropium bromide] | 0.0718 ± 0.055 | 0.9988 ± 0.0021 | 0.0822 ± 0.046 | 0.21 ± 0.046
24 | C[C@H](CS)C(=O)N1CCC[C@H]1C(=O)O [Captopril (Capoten)] | 0.103 ± 0.15 | 0.994 ± 0.011 | 0.128 ± 0.11 | 0.222 ± 0.065
25 | CS(=O)(=O)Nc1ccc([N+](=O)[O-])cc1Oc1ccccc1 [Nimesulide] | 0.0986 ± 0.12 | 0.9959 ± 0.0072 | 0.148 ± 0.08 | 0.237 ± 0.11
26 | CNC[C@@H](O)c1ccc(O)c(O)c1 [L-Adrenaline (Epinephrine)] | 0.0787 ± 0.11 | 0.992 ± 0.013 | 0.11 ± 0.072 | 0.215 ± 0.057
27 | CCCCNC(=O)NS(=O)(=O)c1ccc(C)cc1 [Tolbutamide] | 0.149 ± 0.21 | 0.991 ± 0.016 | 0.136 ± 0.11 | 0.229 ± 0.098

A different layout for some results above:
Row	SMILES	fraction [1]	fraction [2]	fraction of reporter-positive cells with nuclear (HeLa RPS2-YFP reporter)	fraction of reporter-positive cells with nuclear (HeLa RPL29-GFP reporter)
2	COc1ccc(C2CNC(=O)C2)cc1OC1CCCC1 (stereo not drawn) [Rolipram]	0.0669 ± 0.064	0.9981 ± 0.0033	0.113 ± 0.041	0.201 ± 0.058
27	CCCCNC(=O)NS(=O)(=O)c1ccc(C)cc1 [Tolbutamide]	0.149 ± 0.21	0.991 ± 0.016	0.136 ± 0.11	0.229 ± 0.098
